Measured values as given in the supplement of paper PMC10849652.
The other results are listed elsewhere or left out.

The chains behind the UniProt entries cited, without tags or fusion partners. Where a name states a change or a piece, a line headed by the entry shows the natural chain unless it says otherwise.
UniProt Q04726: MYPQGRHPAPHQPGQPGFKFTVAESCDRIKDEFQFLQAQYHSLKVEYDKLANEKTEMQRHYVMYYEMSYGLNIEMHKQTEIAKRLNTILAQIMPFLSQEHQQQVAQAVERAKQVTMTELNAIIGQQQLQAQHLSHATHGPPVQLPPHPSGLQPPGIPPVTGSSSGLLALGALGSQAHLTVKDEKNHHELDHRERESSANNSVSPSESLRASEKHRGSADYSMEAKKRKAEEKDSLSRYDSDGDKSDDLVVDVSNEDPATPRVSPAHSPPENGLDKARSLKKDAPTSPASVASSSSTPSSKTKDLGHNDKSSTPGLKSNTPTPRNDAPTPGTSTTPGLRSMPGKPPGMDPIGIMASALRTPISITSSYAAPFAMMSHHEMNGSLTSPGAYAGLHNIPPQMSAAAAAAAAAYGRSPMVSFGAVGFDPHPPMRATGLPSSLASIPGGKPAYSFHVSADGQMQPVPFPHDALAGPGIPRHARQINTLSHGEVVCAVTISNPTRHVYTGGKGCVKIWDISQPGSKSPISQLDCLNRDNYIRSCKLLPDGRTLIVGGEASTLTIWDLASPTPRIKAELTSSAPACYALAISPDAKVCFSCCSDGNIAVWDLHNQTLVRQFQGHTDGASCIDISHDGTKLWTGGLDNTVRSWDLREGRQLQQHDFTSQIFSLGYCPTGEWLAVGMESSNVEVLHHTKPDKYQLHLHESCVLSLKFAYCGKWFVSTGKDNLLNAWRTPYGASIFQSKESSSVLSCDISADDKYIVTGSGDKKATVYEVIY
UniProt Q01085: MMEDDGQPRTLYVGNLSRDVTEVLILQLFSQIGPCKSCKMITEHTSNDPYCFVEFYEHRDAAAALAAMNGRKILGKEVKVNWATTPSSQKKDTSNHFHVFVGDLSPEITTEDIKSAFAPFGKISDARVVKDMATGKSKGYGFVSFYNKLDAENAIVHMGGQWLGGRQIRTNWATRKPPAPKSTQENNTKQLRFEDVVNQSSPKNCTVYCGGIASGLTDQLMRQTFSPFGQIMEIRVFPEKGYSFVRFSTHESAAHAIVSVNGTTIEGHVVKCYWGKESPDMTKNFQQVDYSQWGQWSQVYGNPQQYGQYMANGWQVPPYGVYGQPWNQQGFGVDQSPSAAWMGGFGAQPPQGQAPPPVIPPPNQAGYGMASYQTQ
UniProt P29401: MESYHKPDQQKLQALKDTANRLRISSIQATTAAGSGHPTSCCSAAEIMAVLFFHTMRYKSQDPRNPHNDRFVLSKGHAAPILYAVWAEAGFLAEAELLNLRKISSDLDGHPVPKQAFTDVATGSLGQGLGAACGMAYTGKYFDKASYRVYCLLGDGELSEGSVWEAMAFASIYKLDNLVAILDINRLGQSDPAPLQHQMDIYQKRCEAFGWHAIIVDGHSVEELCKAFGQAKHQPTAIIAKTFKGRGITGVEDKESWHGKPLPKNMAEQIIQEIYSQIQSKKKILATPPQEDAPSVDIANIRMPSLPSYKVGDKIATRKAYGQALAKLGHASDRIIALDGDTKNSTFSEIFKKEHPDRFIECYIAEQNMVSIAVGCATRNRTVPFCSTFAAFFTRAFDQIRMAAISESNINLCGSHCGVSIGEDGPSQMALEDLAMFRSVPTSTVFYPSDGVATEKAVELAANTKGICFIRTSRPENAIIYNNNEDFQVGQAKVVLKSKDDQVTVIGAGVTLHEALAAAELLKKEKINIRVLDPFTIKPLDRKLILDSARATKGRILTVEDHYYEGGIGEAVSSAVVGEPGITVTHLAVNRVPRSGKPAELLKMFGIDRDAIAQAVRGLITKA
UniProt Q9NR96: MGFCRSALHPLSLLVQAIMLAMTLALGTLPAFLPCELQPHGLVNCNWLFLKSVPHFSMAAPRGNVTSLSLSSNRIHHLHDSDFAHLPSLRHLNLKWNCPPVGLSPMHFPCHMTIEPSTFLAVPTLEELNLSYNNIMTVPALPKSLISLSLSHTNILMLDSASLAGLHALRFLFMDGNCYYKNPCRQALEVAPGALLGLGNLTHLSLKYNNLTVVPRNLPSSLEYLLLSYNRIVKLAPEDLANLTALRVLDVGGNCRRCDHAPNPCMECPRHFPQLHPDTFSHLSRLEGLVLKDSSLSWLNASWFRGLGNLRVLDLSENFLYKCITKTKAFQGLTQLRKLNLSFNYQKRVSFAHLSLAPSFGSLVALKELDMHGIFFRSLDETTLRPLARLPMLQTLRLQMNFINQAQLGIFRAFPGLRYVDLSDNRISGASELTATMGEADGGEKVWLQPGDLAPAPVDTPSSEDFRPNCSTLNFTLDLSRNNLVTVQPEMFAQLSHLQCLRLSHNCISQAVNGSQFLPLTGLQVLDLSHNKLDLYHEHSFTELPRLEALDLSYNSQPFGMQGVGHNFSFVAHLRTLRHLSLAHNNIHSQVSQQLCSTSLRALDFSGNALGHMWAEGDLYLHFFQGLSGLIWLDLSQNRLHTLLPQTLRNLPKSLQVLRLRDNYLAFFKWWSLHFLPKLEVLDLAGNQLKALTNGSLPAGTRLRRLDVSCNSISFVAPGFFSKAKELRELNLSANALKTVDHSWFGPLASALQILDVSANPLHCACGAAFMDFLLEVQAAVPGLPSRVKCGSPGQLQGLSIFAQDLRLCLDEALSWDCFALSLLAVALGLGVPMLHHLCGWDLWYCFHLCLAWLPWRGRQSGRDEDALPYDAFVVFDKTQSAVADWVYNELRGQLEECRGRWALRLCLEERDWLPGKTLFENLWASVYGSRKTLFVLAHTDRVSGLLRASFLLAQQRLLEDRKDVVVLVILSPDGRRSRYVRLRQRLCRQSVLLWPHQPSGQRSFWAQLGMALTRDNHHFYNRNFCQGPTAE
UniProt O60830: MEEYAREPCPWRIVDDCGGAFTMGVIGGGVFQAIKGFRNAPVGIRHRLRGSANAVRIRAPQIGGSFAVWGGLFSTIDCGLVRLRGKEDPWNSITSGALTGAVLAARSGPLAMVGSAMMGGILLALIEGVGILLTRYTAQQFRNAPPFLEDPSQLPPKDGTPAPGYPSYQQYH
UniProt Q99805: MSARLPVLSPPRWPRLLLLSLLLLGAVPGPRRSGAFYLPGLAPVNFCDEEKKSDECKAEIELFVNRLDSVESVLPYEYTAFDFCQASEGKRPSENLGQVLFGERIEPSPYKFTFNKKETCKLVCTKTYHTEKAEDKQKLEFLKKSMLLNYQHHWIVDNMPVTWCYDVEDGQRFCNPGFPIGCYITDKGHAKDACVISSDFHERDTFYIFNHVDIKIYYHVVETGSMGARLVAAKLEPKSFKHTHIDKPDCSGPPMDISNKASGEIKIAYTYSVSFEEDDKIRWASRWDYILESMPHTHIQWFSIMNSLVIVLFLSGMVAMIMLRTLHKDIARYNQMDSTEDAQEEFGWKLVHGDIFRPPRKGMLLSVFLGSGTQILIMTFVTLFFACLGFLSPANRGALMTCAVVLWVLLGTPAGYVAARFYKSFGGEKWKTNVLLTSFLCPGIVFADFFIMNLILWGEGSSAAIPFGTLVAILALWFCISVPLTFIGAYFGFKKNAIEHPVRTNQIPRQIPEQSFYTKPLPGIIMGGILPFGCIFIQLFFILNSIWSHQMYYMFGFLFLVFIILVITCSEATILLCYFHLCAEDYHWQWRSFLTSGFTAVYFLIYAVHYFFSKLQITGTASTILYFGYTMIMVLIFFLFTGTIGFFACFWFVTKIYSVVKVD
UniProt Q9Y5J9: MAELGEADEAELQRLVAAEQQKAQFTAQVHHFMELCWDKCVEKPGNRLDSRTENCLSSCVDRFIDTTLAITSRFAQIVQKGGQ
UniProt Q9UM00: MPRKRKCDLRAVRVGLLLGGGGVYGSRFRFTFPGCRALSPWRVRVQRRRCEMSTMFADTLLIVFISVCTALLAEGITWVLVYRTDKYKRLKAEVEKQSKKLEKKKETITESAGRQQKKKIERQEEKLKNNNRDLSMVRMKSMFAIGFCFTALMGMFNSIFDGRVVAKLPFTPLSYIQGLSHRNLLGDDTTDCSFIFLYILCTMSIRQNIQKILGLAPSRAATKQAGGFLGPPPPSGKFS
UniProt O15321, whole entry, looked up: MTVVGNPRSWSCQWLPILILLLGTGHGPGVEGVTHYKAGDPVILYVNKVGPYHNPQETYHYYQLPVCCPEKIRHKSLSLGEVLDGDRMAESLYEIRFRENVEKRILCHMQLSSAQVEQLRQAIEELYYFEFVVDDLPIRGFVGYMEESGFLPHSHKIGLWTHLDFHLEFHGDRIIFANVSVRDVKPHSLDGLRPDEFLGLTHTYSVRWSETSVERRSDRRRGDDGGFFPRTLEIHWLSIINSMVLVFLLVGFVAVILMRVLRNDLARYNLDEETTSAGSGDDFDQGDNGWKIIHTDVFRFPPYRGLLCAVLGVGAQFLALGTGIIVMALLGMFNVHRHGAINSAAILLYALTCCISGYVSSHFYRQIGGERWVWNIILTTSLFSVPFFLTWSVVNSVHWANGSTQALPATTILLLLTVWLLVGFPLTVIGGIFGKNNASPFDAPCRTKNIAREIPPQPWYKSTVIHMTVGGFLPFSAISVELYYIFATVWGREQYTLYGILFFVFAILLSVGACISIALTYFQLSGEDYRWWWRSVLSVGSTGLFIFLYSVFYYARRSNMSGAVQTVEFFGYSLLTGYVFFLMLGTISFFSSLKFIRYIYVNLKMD
UniProt Q86W42: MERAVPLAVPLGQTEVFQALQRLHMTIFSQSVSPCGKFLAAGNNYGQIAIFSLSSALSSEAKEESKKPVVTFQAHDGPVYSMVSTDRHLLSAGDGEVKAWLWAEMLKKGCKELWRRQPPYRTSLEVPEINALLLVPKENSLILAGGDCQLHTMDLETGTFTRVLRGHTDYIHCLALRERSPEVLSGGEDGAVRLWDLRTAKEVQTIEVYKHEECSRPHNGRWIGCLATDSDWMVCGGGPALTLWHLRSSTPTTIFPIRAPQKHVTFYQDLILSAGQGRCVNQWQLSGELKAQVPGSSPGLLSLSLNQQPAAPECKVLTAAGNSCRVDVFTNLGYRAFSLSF
UniProt Q9UNS1: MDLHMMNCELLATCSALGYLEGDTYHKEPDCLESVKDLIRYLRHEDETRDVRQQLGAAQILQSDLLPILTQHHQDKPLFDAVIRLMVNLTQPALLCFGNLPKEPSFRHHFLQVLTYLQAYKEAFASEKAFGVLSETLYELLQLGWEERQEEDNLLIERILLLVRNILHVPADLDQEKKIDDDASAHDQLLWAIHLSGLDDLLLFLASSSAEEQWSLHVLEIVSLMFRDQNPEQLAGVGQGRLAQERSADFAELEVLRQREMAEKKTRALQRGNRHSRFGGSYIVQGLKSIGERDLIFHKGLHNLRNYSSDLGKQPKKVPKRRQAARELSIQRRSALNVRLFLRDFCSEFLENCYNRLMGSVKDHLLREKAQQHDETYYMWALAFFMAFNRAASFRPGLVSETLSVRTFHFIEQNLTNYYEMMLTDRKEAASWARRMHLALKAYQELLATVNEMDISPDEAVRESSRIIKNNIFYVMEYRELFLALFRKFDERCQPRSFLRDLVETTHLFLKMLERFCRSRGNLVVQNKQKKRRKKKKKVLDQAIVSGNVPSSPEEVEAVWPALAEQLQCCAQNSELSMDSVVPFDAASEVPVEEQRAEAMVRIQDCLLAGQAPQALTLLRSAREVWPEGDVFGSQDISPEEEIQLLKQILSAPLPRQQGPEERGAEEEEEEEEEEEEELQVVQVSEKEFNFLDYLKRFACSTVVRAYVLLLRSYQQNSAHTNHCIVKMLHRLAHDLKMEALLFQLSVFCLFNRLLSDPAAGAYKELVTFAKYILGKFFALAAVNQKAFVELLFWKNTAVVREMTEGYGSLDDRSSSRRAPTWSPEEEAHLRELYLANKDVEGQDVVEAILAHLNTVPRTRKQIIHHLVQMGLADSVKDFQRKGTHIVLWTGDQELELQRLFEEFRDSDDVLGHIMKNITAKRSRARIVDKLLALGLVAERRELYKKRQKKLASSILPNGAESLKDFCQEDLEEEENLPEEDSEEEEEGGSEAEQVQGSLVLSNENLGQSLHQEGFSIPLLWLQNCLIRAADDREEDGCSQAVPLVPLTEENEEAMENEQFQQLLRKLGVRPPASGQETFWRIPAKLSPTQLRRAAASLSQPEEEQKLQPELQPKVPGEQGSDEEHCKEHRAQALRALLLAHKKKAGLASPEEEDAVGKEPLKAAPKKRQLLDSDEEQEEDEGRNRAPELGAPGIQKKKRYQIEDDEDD
UniProt P17152: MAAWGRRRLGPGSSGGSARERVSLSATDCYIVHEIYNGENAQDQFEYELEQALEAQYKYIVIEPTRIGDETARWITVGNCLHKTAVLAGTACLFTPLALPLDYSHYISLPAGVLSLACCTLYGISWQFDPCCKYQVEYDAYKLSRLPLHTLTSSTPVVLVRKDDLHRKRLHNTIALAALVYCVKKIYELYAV
UniProt P01033: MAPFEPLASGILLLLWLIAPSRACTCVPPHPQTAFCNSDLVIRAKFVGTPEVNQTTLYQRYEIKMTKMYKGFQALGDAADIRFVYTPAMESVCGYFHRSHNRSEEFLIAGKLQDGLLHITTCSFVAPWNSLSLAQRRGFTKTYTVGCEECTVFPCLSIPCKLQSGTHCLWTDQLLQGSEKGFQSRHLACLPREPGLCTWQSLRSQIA

Legend:
Assay in all cases: log2 fold change, soluble protein after heating vs DMSO (PISA); higher = thermal stabilisation; K562 lysate, 10 uM; active = over 0.2 and 3.5 SD of the protein, either way, in both replicates (recomputed)
nilotinib = compound: Cc1cn(-c2cc(NC(=O)c3ccc(C)c(Nc4nccc(-c5cccnc5)n4)c3)cc(C(F)(F)F)c2)cn1 [nilotinib]
Method in brief: (§1)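 Log-two fold change in thermal stability relative to solvent controls is reported from duplicates. For each sample, crude K562 extract from dounce-homogenised pellets in PBS pH 7.4 with 1 mM MgCl2, at 1 mg/mL protein, was treated with 10 μM compound for 30 min. Aliquots heated for 3 min across 48°C-58°C were pooled, brought to 0.5% NP-40 at 4°C and cleared at 21,000xg for 90 min. The supernatant was quantified by TMTpro 16plex LC-MS/MS with channel sums equalised.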

[1] = compound: Cc1nc(Nc2n[nH]c3c2CN(C(=O)N[C@H](CN(C)C)c2ccccc2)C3(C)C)c2sccc2n1
Method in brief: as §1

dasatinib = compound: Cc1nc(Nc2ncc(C(=O)Nc3c(C)cccc3Cl)s2)cc(N2CCN(CCO)CC2)n1 [dasatinib]
Method in brief: as §1

[2] = compound: Cc1ncc(-c2ccnc(Nc3ccc(S(C)(=O)=O)cc3)n2)n1C(C)C
Method in brief: as §1

[3] = compound: Cn1cc(-c2ccc3c(c2)CCN3C(=O)Cc2cccc(C(F)(F)F)c2)c2c(N)ncnc21
Method in brief: as §1

quisinostat = compound: Cn1cc(CNCC2CCN(c3ncc(C(=O)NO)cn3)CC2)c2ccccc21 [quisinostat]
Method in brief: as §1

tipifarnib = compound: Cn1cncc1[C@@](N)(c1ccc(Cl)cc1)c1ccc2c(c1)c(-c1cccc(Cl)c1)cc(=O)n2C [tipifarnib]
Method in brief: as §1

[4] = compound: NC(=O)Nc1cc(-c2cccc(F)c2)sc1C(=O)N[C@H]1CCCNC1
Method in brief: as §1

[5] = compound: NC(=O)c1cnc(N[C@@H]2CCCC[C@@H]2N)nc1Nc1cccc(-n2nccn2)c1
Method in brief: as §1

[6] = compound: NC1(c2ccc(-c3nc4ccn5c(=O)[nH]nc5c4cc3-c3ccccc3)cc2)CCC1
Method in brief: as §1

| Target | log2 fold change (nilotinib) | log2 fold change [1] | log2 fold change (dasatinib) | log2 fold change [2] | log2 fold change [3] | log2 fold change (quisinostat) | log2 fold change (tipifarnib) | log2 fold change [4] | log2 fold change [5] | log2 fold change [6] |
| --- | --- | --- | --- | --- | --- | --- | --- | --- | --- | --- |
| TMEM161A (UniProt Q9NX61) | inactive: -0.054 | inactive: -0.091 | inactive: -0.001 | inactive: 0.019 | inactive: 0.103 | inactive: 0.007 | inactive: 0.054 | inactive: 0.05 | inactive: -0.107 | inactive: 0.017 |
| TIMM23 (UniProt O14925) | inactive: 0.019 | inactive: 0.056 | inactive: 0.013 | inactive: 0.027 | inactive: -0.053 | inactive: -0.05 | inactive: -0.016 | inactive: 0.029 | inactive: 0.042 | inactive: 0.058 |
| TIMMDC1 (UniProt Q9NPL8) | inactive: 0.035 | inactive: -0.019 | inactive: 0.018 | inactive: 0.022 | inactive: -0.046 | inactive: 0.036 | inactive: -0.005 | inactive: -0.028 | inactive: -0.026 | inactive: -0.008 |
| TLE3 isoform 5 (UniProt Q04726) | inactive: 0.142 | inactive: -0.174 | inactive: -0.007 | inactive: -0.06 | inactive: 0.028 | inactive: -0.102 | inactive: 0.05 | inactive: -0.009 | inactive: 0.024 | inactive: 0.058 |
| TIAL1 isoform 2 (UniProt Q01085) | active: -0.603 | inactive: -0.013 | inactive: 0.025 | inactive: -0.015 | inactive: 0.028 | inactive: 0.039 | inactive: -0.037 | inactive: -0.016 | inactive: 0.004 | inactive: 0.033 |
| TMEM143 (UniProt Q96AN5) | inactive: 0.153 | inactive: -0.103 | inactive: 0.543 | inactive: 0.169 | inactive: -0.023 | inactive: 0.131 | inactive: -0.046 | inactive: -0.017 | inactive: 0.079 | – |
| THOC3 (UniProt Q96J01) | inactive: 0.029 | inactive: -0.011 | inactive: 0.007 | inactive: 0.033 | inactive: 0.041 | inactive: 0.035 | inactive: 0.033 | inactive: -0.023 | inactive: -0.014 | inactive: 0.002 |
| TIMM8A (UniProt O60220) | inactive: 0.086 | inactive: -0.002 | inactive: 0.015 | inactive: 0.192 | inactive: -0.04 | inactive: -0.049 | inactive: 0.026 | inactive: -0.001 | inactive: 0.046 | inactive: -0.021 |
| TKT isoform 2 (UniProt P29401) | inactive: 0.001 | inactive: -0.003 | inactive: 0.006 | inactive: 0.011 | inactive: 0.006 | inactive: 0.018 | inactive: 0.027 | inactive: -0.022 | inactive: -0.016 | inactive: 0 |
| THOC5 (UniProt Q13769) | inactive: -0.035 | inactive: 0.006 | inactive: -0.014 | inactive: -0.036 | inactive: 0.029 | inactive: -0.006 | inactive: -0.019 | inactive: 0.021 | inactive: 0.009 | inactive: -0.01 |
| TLR9 isoform 4 (UniProt Q9NR96) | inactive: -0.036 | inactive: 0.021 | inactive: -0.006 | inactive: -0.03 | inactive: -0.06 | inactive: -0.027 | inactive: -0.046 | inactive: -0.005 | inactive: -0.009 | inactive: 0.028 |
| TMEM179B (UniProt Q7Z7N9) | inactive: 0 | inactive: 0.169 | inactive: 0.068 | inactive: 0.239 | inactive: -0.095 | inactive: -0.022 | inactive: -0.138 | inactive: -0.085 | inactive: -0.01 | inactive: 0.006 |
| THOP1 (UniProt P52888) | inactive: 0.03 | inactive: 0.019 | inactive: -0.023 | inactive: 0.024 | inactive: 0.015 | inactive: -0.012 | inactive: 0.005 | inactive: -0.011 | inactive: -0.013 | inactive: 0.017 |
| THADA (UniProt Q6YHU6) | inactive: 0.009 | inactive: 0.012 | inactive: -0.048 | inactive: 0.008 | inactive: 0.027 | inactive: -0.115 | inactive: -0.011 | inactive: 0.053 | inactive: 0.007 | inactive: 0.002 |
| TMEM184C (UniProt Q9NVA4) | inactive: -0.014 | inactive: 0.095 | inactive: 0.015 | inactive: -0.001 | inactive: 0.074 | inactive: 0.004 | inactive: 0.006 | inactive: -0.009 | inactive: -0.045 | inactive: -0.05 |
| TMED9 (UniProt Q9BVK6) | inactive: 0.032 | inactive: -0.034 | inactive: -0.023 | inactive: -0.001 | inactive: 0.014 | inactive: -0.041 | inactive: -0.012 | inactive: 0.007 | inactive: 0.032 | inactive: 0.04 |
| TIMM17B (UniProt O60830) | inactive: -0.003 | inactive: 0.051 | inactive: 0.012 | inactive: -0.03 | inactive: -0.048 | inactive: 0.006 | inactive: -0.049 | inactive: 0.017 | inactive: -0.006 | inactive: -0.014 |
| TM9SF2 (UniProt Q99805) | inactive: 0.002 | inactive: 0.004 | inactive: -0.035 | inactive: 0.008 | inactive: -0.025 | inactive: 0.03 | inactive: -0.012 | inactive: -0.022 | inactive: 0.002 | inactive: -0.017 |
| TIMM8B (UniProt Q9Y5J9) | inactive: 0.034 | inactive: 0.096 | inactive: -0.012 | inactive: 0.278 | inactive: 0.065 | inactive: 0.045 | inactive: 0.085 | inactive: -0.067 | inactive: 0.044 | inactive: -0.025 |
| TMCO1 (UniProt Q9UM00) | inactive: -0.08 | inactive: -0.055 | inactive: -0.002 | inactive: 0.073 | inactive: 0.011 | inactive: 0.13 | inactive: -0.017 | inactive: 0.023 | inactive: 0.02 | inactive: 0.026 |
| TM9SF1 (UniProt O15321) | inactive: -0.028 | inactive: 0.061 | inactive: 0.004 | inactive: 0.039 | inactive: -0.04 | inactive: 0.076 | inactive: 0.061 | inactive: -0.002 | inactive: 0.007 | inactive: -0.043 |
| THOC6 (UniProt Q86W42) | inactive: 0.011 | inactive: -0.036 | inactive: -0.007 | inactive: -0.022 | inactive: 0.005 | inactive: -0.009 | inactive: 0.062 | inactive: 0.007 | inactive: 0.018 | inactive: -0.054 |
| TGM2 (UniProt P21980) | inactive: -0.009 | inactive: -0.021 | inactive: 0 | inactive: 0.006 | inactive: 0.007 | inactive: -0.042 | inactive: -0.012 | inactive: 0.001 | inactive: 0.019 | inactive: -0.016 |
| TIMELESS (UniProt Q9UNS1) | inactive: 0.018 | inactive: -0.039 | inactive: -0.082 | inactive: 0.024 | inactive: 0.005 | inactive: -0.137 | inactive: -0.052 | inactive: 0.045 | inactive: 0.029 | inactive: -0.035 |
| TMEM11 (UniProt P17152) | inactive: 0.011 | inactive: -0.011 | inactive: 0 | inactive: -0.029 | inactive: -0.024 | inactive: 0.037 | inactive: -0.01 | inactive: 0 | inactive: -0.008 | inactive: -0.016 |
| TIMP1 (UniProt P01033) | inactive: -0.006 | inactive: -0.007 | inactive: 0.036 | inactive: 0.001 | inactive: -0.034 | inactive: -0.036 | inactive: -0.001 | inactive: -0.019 | inactive: 0.008 | inactive: -0.037 |
| TIMM22 (UniProt Q9Y584) | inactive: -0.062 | inactive: 0.012 | inactive: 0.057 | inactive: -0.019 | inactive: -0.04 | inactive: 0.09 | inactive: 0.066 | inactive: 0.026 | inactive: 0.008 | inactive: 0.062 |
| TMEM106B (UniProt Q9NUM4) | inactive: 0.002 | inactive: 0 | inactive: 0.001 | inactive: 0.009 | inactive: 0.149 | inactive: -0.077 | inactive: 0.09 | inactive: -0.019 | inactive: -0.054 | inactive: -0.007 |
| TLN2 (UniProt Q9Y4G6) | inactive: 0.012 | inactive: -0.005 | inactive: 0.036 | inactive: -0.003 | inactive: 0.003 | inactive: -0.052 | inactive: 0.01 | inactive: -0.005 | inactive: -0.001 | inactive: -0.013 |
| TK1 (UniProt P04183) | inactive: -0.009 | inactive: 0.002 | inactive: 0.004 | inactive: 0.003 | inactive: -0.009 | inactive: -0.03 | inactive: 0.015 | inactive: -0.005 | inactive: -0.043 | inactive: -0.003 |

Retrieved one by one from the entries so far, 2 records:

| Target | log2 fold change (nilotinib) | log2 fold change [1] | log2 fold change (dasatinib) | log2 fold change [2] | log2 fold change [3] | log2 fold change (quisinostat) | log2 fold change (tipifarnib) | log2 fold change [4] | log2 fold change [5] | log2 fold change [6] |
| --- | --- | --- | --- | --- | --- | --- | --- | --- | --- | --- |
| TIMM22 (UniProt Q9Y584) | inactive: -0.062 | inactive: 0.012 | inactive: 0.057 | inactive: -0.019 | inactive: -0.04 | inactive: 0.09 | inactive: 0.066 | inactive: 0.026 | inactive: 0.008 | inactive: 0.062 |
| TK1 (UniProt P04183) | inactive: -0.009 | inactive: 0.002 | inactive: 0.004 | inactive: 0.003 | inactive: -0.009 | inactive: -0.03 | inactive: 0.015 | inactive: -0.005 | inactive: -0.043 | inactive: -0.003 |
